Results as given in patent US20030181362A1, “Receptor” (priority 2000, published 2003).

Columns and labels:
[1] = biological target: HuTORE (putative human homologue of TORE) (human); test: ligand blot of THP-1 lysate with radiolabelled C2 (FIG. 10B)
[2] = biological target: HuTORE (putative human homologue of TORE) (human); test: ligand blot of THP-1 total protein lysate (non-reducing SDS-PAGE) with I125-labelled C2

B1: human complement protein C2 (ligand, UniProt P06681 21-752, looked up)
chain: APSCPQNVNISGGTFTLSHGWAPGSLLTYSCPQGLYPSPASRLCKSSGQWQTPGATRSLSKAVCKPVRCPAPVSFENGIYTPRLGSYPVGGNVSFECEDGFILRGSPVRQCRPNGMWDGETAVCDNGAGHCPNPGISLGAVRTGFRFGHGDKVRYRCSSNLVLTGSSERECQGNGVWSGTEPICRQPYSYDFPEDVAPALGTSFSHMLGATNPTQKTKESLGRKIQIQRSGHLNLYLLLDCSQSVSENDFLIFKESASLMVDRIFSFEINVSVAIITFASEPKVLMSVLNDNSRDMTEVISSLENANYKDHENGTGTNTYAALNSVYLMMNNQMRLLGMETMAWQEIRHAIILLTDGKSNMGGSPKTAVDHIREILNINQKRNDYLDIYAIGVGKLDVDWRELNELGSKKDGERHAFILQDTKALHQVFEHMLDVSKLTDTICGVGNMSANASDQERTPWHVTIKPKSQETCRGALISDQWVLTAAHCFRDGNDHSLWRVNVGDPKSQWGKEFLIEKAVISPGFDVFAKKNQGILEFYGDDIALLKLAQKVKMSTHARPICLPCTMEANLALRRPQGSTCRDHENELLNKQSVPAHFVALNGSKLNINLKMGVEWTSCAEVVSQEKTMFPNLTDVREVVTDQFLCSGTQEDESPCKGESGGAVFLERRFRFFQVGLVSWGLYNPCLGSADKNSRKRAPRSKVPPPRDFHINLFRMQPWLRQHLGDVLNFLPL
Question: B1 was tested. Which binding [1] did it give?
Answer: binds

Question: And the binding [2]?
Answer: binds

No constants are given. Whether binding was seen depends on the method and setting. Binding can be weak; no strength is given.
